# Most values lie at the floor of the assay. Slopes are relative: functional sequences can read slightly below zero.
# Test system: Saccharomyces cerevisiae PS128 hsf1 delta, HSF1(1-493) fusion
# Assay: growth estimate (transactivation domain function in HSF1 fusion, heat-shock survival) (a.u. (slope of normalised read count over time)); higher = stronger growth at 37°C, i.e. more transactivation activity
# Conditions: library: random library
row,Substance,growth estimate
1,NGRGWGPSRYGPE,< -0.25
2,NGRGWLITSLPINAASGSPG,< -0.25
3,NGRMQS,< -0.25
4,NGRRESPLKDLGKVAKDQSV,< -0.25
5,NGSFV,< -0.25
6,NGSGFKNCRIWASRFWMKVA,< -0.25
7,NGSPNSRAHSRLLADPDYGQ,-0.246
8,NGTAKVRAGPVTIVVTTTLF,< -0.25
9,NGTDRISRLNICDL,< -0.25
10,NGWAQLFKARLRKGQ,< -0.25
11,NGWGLTSTCFRRQTILCGPW,< -0.25
12,NHHLQCFDEKPRSVRAEGCS,< -0.25
13,NHKEIPTQRLGIVDLVQALG,< -0.25
14,NHLAPRG,< -0.25
15,NHMDAAPSKARDCRKDFVSG,< -0.25
16,NHPVIFRDVSDATAGTQSAR,< -0.25
17,NHQNPYVQSTLQSFQNQLAV,< -0.25
18,NHSKQRAPKTRRM,< -0.25
19,NHSQDGLSVHV,< -0.25
20,NHSTY,-0.25
21,NHVGHPFRKRPPADPSGAMP,< -0.25
22,NHVHRCGSICIG,< -0.25
23,NIA,< -0.25
24,NIALSYFSPDEYSPKCSLCA,< -0.25
25,NIIKRLVLDGTFTISYGI,0.0045

row,Substance,growth estimate
1,NIRECPYEIKTCPVERVVPL,< -0.25
2,NIRLSTDSVPNRRRPVYTTI,< -0.25
3,NIRWTWASPLPAGEVERISQ,< -0.25
4,NIRYGCRSL,< -0.25
5,NIVRSGSRLRARFISMNRYW,< -0.25
6,NKADAGHVWMGGSRPSHFFF,< -0.25
7,NKARGQPPPW,< -0.25
8,NKE,< -0.25
9,NKEVFPPLPDY,< -0.25
10,NKFSKCPVKCARAG,< -0.25
11,NKGD,-0.243
12,NKLRSVPSVGSVFLAHCWLH,< -0.25
13,NKPQAQGDVVSVLISRQLTP,< -0.25
14,NKREPVISEWSSGRDRRSRN,< -0.25
15,NKRVCAAFDRWGAVCFLS,< -0.25
16,NKSLVETQRGTHVPCSSGKY,-0.246
17,NLAFKKQTNGFYFSRLALVG,< -0.25
18,NLCLWSNTSAVSKLNPSREP,< -0.25
19,NLESGSSKASSLKSPDATIG,-0.219
20,NLGSVGESSQA,< -0.25
21,NLHDRCQVRAGSR,< -0.25
22,NLHGCRSQYA,< -0.25
23,NLKAEPMTD,< -0.25
24,NLLAISHFRQKATAAC,< -0.25
25,NLLESTTPRIQLDI,< -0.25

row,Substance,growth estimate
1,NLM,< -0.25
2,NLMGGGNS,-0.231
3,NLPEI,< -0.25
4,NLPKGEFGGPGVRGGLSSTA,< -0.25
5,NLPPLDIIDGNVRRAPPNAV,< -0.25
6,NLQ,< -0.25
7,NLRAV,< -0.25
8,NLRGRLSGYRPENLDRVAGR,< -0.25
9,NLRLDPI,< -0.25
10,NLRVHSKTAVSRNIGRSPLQ,-0.245
11,NLSCAITVT,< -0.25
12,NLSRSIEDRRHAIVSTG,< -0.25
13,NLSSRVPLR,< -0.25
14,NLTR,< -0.25
15,NLTYSPDCLTCPM,< -0.25
16,NLVAAFMDRYGEWKGHSPME,-0.246
17,NLVRYNLDRLFEPIAGRPCI,< -0.25
18,NLYGDGSAGTSRPH,< -0.25
19,NMEGDVGR,< -0.25
20,NMI,< -0.25
21,NMQEHIPKWHDREFLLGGIF,0.0112
22,NMQRLGIAPYRSTPVTQR,< -0.25
23,NMSLHGCTIIWSLRIALSRV,< -0.25
24,NMSLSQPRATTSPGERRGEI,< -0.25
25,NMTMRVSHGSVDKLLIPLGS,-0.25

row,Substance,growth estimate
1,NMTN,< -0.25
2,NMTVFMLFARC,< -0.25
3,NMVRRETPLGARPVFEPMLW,-0.218
4,NMVTGT,< -0.25
5,NNASLHT,< -0.25
6,NNASRGL,< -0.25
7,NNFIVGRQRI,-0.25
8,NNLPEATTDLIRPRAVSLGS,-0.246
9,NNPF,< -0.25
10,NNRLGPNGSAATKWTG,< -0.25
11,NNSRSCRDFMRITLI,< -0.25
12,NNTWKGQRQDRVGGADRSFQ,< -0.25
13,NNWTE,< -0.25
14,NPANAGRTYQNVKTPA,< -0.25
15,NPDVAINGRY,< -0.25
16,NPEK,< -0.25
17,NPISKAIVW,< -0.25
18,NPLMGLGSFREDPHVLGLIA,< -0.25
19,NPLSRHARHH,< -0.25
20,NPQHHCPLKAPWRELLTVQL,< -0.25
21,NPRACSQRVRYFQMRRSLPC,< -0.25
22,NPRALAINCPDRLENIEMRR,< -0.25
23,NPRIETRGSQFISRPSPHFR,< -0.25
24,NPSLKSHRRSWNMGFVVQRG,< -0.25
25,NPSNSRVVQQSVDRDPQSLP,< -0.25

# For convenience, part of the list above.
row,Substance,growth estimate
3,NMVRRETPLGARPVFEPMLW,-0.218
4,NMVTGT,< -0.25
5,NNASLHT,< -0.25
6,NNASRGL,< -0.25
7,NNFIVGRQRI,-0.25
8,NNLPEATTDLIRPRAVSLGS,-0.246
9,NNPF,< -0.25

# Look-ups from the entries so far:
# For growth estimate, NMVTGT has < -0.25
# For growth estimate, NPSNSRVVQQSVDRDPQSLP has < -0.25
# For growth estimate, NMTN has < -0.25

# Further entries:

row,Substance,growth estimate
1,NPSTTLSEWHVGRGPMGVSF,< -0.25
2,NPTRRTYF,-0.22
3,NPVGKALRKMSRIARLARNR,< -0.25
4,NPWIRKLPQGCNTRSIAYGG,< -0.25
5,NPWSLCQKID,< -0.25
6,NPYGWVAP,< -0.25
7,NQAP,< -0.25
8,NQDLIDTCYANSMIMCQWNE,-0.0659
9,NQGRGRQLAGRTAQSKAAPW,< -0.25
10,NQIFSYLATPHCWTFGGPSA,< -0.25
11,NQLSLMLHNSIGRGLAVSPY,< -0.25
12,NQQCLCLSCISWGPRAAPNQ,< -0.25
13,NQTSQAYRQRQLSPTCYR,< -0.25
14,NQWLGYL,-0.0975
15,NRAYGNSNRRPAGTAGVGQ,< -0.25
16,NRF,-0.245
17,NRGAYPTCFICQ,< -0.25
18,NRGFLRITLVSDVISPPG,< -0.25
19,NRGNATCKRSAPLPESGYLR,< -0.25
20,NRGTGSLG,< -0.25
21,NRH,< -0.25
22,NRIEGWFKGL,< -0.25
23,NRLG,< -0.25
24,NRLKQKRL,< -0.25
25,NRLLAPLAVWWLTQAMSALL,< -0.25

row,Substance,growth estimate
1,NRNRFRCSRYRLTPSSQVVP,< -0.25
2,NRNVIQGSKDVVGALHSLVR,< -0.25
3,NRPLDTLGISQSLARRGELV,< -0.25
4,NRPRRVLNRSRMGVTRGTTS,< -0.25
5,NRQLIVDLSPIVSIEGVALS,< -0.25
6,NRQYFQNSGVMRGVLSALYT,0.559
7,NRRCHLGRVSPCYTVSLP,-0.229
8,NRRLTVECVNEVSFGNVPLR,< -0.25
9,NRSRSERFGTSTREHQREPP,-0.231
10,NRSRVGLHHLTISMTAGIAR,< -0.25
11,NRT,< -0.25
12,NRTYRNQEDPVIT,< -0.25
13,NRVASVVGAATVTNQSSMRP,< -0.25
14,NRVEEGRRKP,< -0.25
15,NRYPLLVWHIYWIPGLCFGS,< -0.25
16,NSARVFCYTRAASCLTWPCD,< -0.25
17,NSETRALLVLGVGA,< -0.25
18,NSEVLHDVASSCLGLATLGT,< -0.25
19,NSGLLIWPGRGLMCGSSRSC,< -0.25
20,NSGLPGTNLVNHKVG,< -0.25
21,NSGQLSHGITSECGRT,< -0.25
22,NSHPEKTSNSVQRLRAFLPR,< -0.25
23,NSHYT,< -0.25
24,NSIGYSATYSFVQLRRISTG,< -0.25
25,NSLAKMSTRA,< -0.25

row,Substance,growth estimate
1,NSPTRYGVVVHLTSHGGNRG,< -0.25
2,NSQEVRHCHKATAFLASQSI,< -0.25
3,NSRAFNEKVVLSF,< -0.25
4,NSRDRAEISSTTTWRGPNMG,-0.243
5,NSRGRLCCGQSTRRPRALPC,< -0.25
6,NSSVSWDPKHAGGLRYA,< -0.25
7,NSTT,< -0.25
8,NSTVTRDPVAGVSFHRSSIT,< -0.25
9,NSVGYLSITGNE,< -0.25
10,NSVRRRKVHGDDWVSTLQLG,< -0.25
11,NSVSLVFALGGR,< -0.25
12,NSVSPRVCAHAQA,< -0.25
13,NSYVRGECTWVIVRCANNGN,< -0.25
14,NTAADFSGL,< -0.25
15,NTARREGLRCRQSGCYLPFH,< -0.25
16,NTAY,< -0.25
17,NTCEAGDTQLKPLPAQARGV,< -0.25
18,NTEVRLP,< -0.25
19,NTHRHYANGVGCQVPLQTPR,< -0.25
20,NTIGITVGKIRQLAVKAYSR,< -0.25
21,NTPGSLTDYS,-0.243
22,NTPNSLARFTVQCGGSPPVR,< -0.25
23,NTRRPSSLAKKGTTRVLGHN,< -0.25
24,NTRTAHRGWRHQQGGVVCRP,< -0.25
25,NTSELVTPGKFFVRC,< -0.25

row,Substance,growth estimate
1,NTTIVVRPKH,< -0.25
2,NTVWSERGPRSTFYRHYRPA,< -0.25
3,NTYWQLYSI,< -0.25
4,NVALSGPL,< -0.25
5,NVCSEHQEGQFVTRVSRSRA,< -0.25
6,NVGEWGKRFISGCFNRLNFA,< -0.25
7,NVGLCHGF,< -0.25
8,NVGRECVVLY,< -0.25
9,NVGRPLPSAGRACSDSTSSC,< -0.25
10,NVHGQTSHTDPGFVSIWYLR,0.0464
11,NVHRASCS,< -0.25
12,NVIFSMDSYTFEGITVGNTG,< -0.25
13,NVIYASLFYV,< -0.25
14,NVLCGCRPGWYCRASEGSGW,< -0.25
15,NVLLRCARTSVYLYNTLLPI,< -0.25
16,NVLQNSVQPLSEGHRSEYPH,< -0.25
17,NVNSAQGILRGLLVSRQFRI,< -0.25
18,NVPSGIRTGDL,< -0.25
19,NVQEFRLKVSGIRYAWPPRS,< -0.25
20,NVRNGRAIRVLWFRQALAGA,< -0.25
21,NVRRLACEAHTFRFHSEL,< -0.25
22,NVRYPLARLTLEKCCSRGAR,< -0.25
